Values from PubChem BioAssay AID686938 (Drosophila RNAi Screening Center, 2013).

Purpose: 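Looking for CRAC channel components and the factors controlling them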 (primary screen)
System: Drosophila S2R+ cells
Reagents: long dsRNA against Drosophila genes, about 0.25 µg dsRNA per well, roughly 10,000 cells
Time to read-out: 5 days of knock-down before the calcium assay
Conditions: thapsigargin (SERCA pump blocker) to empty calcium stores; entry signal taken 4 min after adding it
Measurement: 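Duplicate raw fluo-4 intensities per well from a plate reader, at rest and four minutes after thapsigargin emptied calcium stores; entry-to-rest ratio filled for only some wells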
Scale: calcium entry signal: higher = stronger calcium signal after store depletion; resting calcium signal: higher = higher resting calcium signal
Units: calcium entry signal in fluorescence units; resting calcium signal in fluorescence units
Hit rule: 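Hit if the duplicate-averaged plate z-score for entry over resting signal is under −3; wells with weak total dye signal (Fmax z < −2) or more than 5 off-targets removed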
Meaning of the calls: active = strongly reduced calcium entry; inactive = no strong reduction
In all, the deposit lists about 23,000 reagents; this is a random part of those with a known target gene and a result. In the full data, 75 (0.33%) got an active call. 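Raw plate signals without normalisation; calls rest on plate z-scores that were not deposited; ratio present for only 364 wells.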 A number with no mark means an inactive call. Names joined by + are all predicted targets of the reagent. Not stated in the record: the dose of the treatment.

The first 2 entries, ahead of the listing:
MED6 (Mediator complex subunit 6) [DRSC16500] | calcium entry signal, replicate 1: 2.64e7; calcium entry signal, replicate 2: 3.41e7; resting calcium signal, replicate 1: 1.31e7; resting calcium signal, replicate 2: 1.59e7
CR46300 (pseudo) [DRSC12467] | calcium entry signal, replicate 1: 2.64e7; calcium entry signal, replicate 2: 3.91e7; resting calcium signal, replicate 1: 1.22e7; resting calcium signal, replicate 2: 1.75e7

The list itself, from the start:
MED6 (Mediator complex subunit 6) [DRSC16500] | calcium entry signal, replicate 1: 2.64e7; calcium entry signal, replicate 2: 3.41e7; resting calcium signal, replicate 1: 1.31e7; resting calcium signal, replicate 2: 1.59e7
CR46300 (pseudo) [DRSC12467] | calcium entry signal, replicate 1: 2.64e7; calcium entry signal, replicate 2: 3.91e7; resting calcium signal, replicate 1: 1.22e7; resting calcium signal, replicate 2: 1.75e7
fs(1)K10 (female sterile (1) K10) [DRSC18775] | calcium entry signal, replicate 1: 4.79e7; calcium entry signal, replicate 2: 4.78e7; resting calcium signal, replicate 1: 2.17e7; resting calcium signal, replicate 2: 2.33e7
CG6834 [DRSC16125] | calcium entry signal, replicate 1: 3.93e7; calcium entry signal, replicate 2: 4.24e7; resting calcium signal, replicate 1: 1.91e7; resting calcium signal, replicate 2: 2.13e7
CG6321 [DRSC10623] | calcium entry signal, replicate 1: 4.37e7; calcium entry signal, replicate 2: 3.66e7; resting calcium signal, replicate 1: 2.78e7; resting calcium signal, replicate 2: 1.42e7
CG9444 [DRSC16493] | calcium entry signal, replicate 1: 3.44e7; calcium entry signal, replicate 2: 3.51e7; resting calcium signal, replicate 1: 1.80e7; resting calcium signal, replicate 2: 1.78e7
CG13560 [DRSC04198] | calcium entry signal, replicate 1: 4.42e7; calcium entry signal, replicate 2: 4.74e7; resting calcium signal, replicate 1: 2.14e7; resting calcium signal, replicate 2: 2.20e7
CG2816 [DRSC00539] | calcium entry signal, replicate 1: 3.46e7; calcium entry signal, replicate 2: 2.90e7; resting calcium signal, replicate 1: 1.72e7; resting calcium signal, replicate 2: 1.47e7
CG11694 [DRSC14354] | calcium entry signal, replicate 1: 3.67e7; calcium entry signal, replicate 2: 3.49e7; resting calcium signal, replicate 1: 1.85e7; resting calcium signal, replicate 2: 1.67e7
SkpE (SKP1-related E) [DRSC19431] | calcium entry signal, replicate 1: 5.23e7; calcium entry signal, replicate 2: 3.46e7; resting calcium signal, replicate 1: 2.20e7; resting calcium signal, replicate 2: 1.48e7
Mic26-27 (MICOS subunit 26/27) [DRSC15913] | calcium entry signal, replicate 1: 2.97e7; calcium entry signal, replicate 2: 2.65e7; resting calcium signal, replicate 1: 1.39e7; resting calcium signal, replicate 2: 1.22e7
CG33331 + CG33332 [DRSC22928] | calcium entry signal, replicate 1: 3.35e7; calcium entry signal, replicate 2: 3.10e7; resting calcium signal, replicate 1: 1.92e7; resting calcium signal, replicate 2: 1.52e7
